Results are given in words; binding and its absence hold for the method and conditions named. In cells and extracts the contact can be indirect. Some binding calls cover weakened binding; strength is not graded here.
Molecular target: MARVEL domain containing 2 (MARVELD2), wild type, FLAG-tagged (human) (UniProt Q8N4S9)
Assay: co-IP; lysates of HEK-293 cells 48 h after transfection with FLAG-MARVELD2 wild type or mutant; 100 ug protein; antibodies against ZO-1, FLAG or IgG control at 4 °C overnight, protein A agarose beads; SDS-PAGE and blot stained for ZO-1; lysis buffer with NaCl, 1% Triton X-100, 0.1% SDS, Tris pH 7.5, 1% deoxycholate

Protein sequences, listed by entry. Tags and fused reporters are not part of them.
UniProt Q8N4S9: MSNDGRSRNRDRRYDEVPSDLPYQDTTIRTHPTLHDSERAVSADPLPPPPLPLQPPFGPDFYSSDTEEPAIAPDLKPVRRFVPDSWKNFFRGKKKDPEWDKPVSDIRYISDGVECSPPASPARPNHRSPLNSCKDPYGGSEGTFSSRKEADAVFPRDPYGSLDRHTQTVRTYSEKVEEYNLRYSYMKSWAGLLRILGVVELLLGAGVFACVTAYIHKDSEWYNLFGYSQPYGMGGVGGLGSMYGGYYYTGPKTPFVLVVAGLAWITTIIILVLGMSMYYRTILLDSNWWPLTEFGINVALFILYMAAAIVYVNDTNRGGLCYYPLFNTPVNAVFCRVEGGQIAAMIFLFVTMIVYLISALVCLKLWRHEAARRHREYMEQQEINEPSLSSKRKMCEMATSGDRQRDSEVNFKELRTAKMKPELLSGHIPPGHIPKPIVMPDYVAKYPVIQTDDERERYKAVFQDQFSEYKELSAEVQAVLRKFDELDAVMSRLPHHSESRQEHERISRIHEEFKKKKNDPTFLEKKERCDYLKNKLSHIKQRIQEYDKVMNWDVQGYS
UniProt Q07157: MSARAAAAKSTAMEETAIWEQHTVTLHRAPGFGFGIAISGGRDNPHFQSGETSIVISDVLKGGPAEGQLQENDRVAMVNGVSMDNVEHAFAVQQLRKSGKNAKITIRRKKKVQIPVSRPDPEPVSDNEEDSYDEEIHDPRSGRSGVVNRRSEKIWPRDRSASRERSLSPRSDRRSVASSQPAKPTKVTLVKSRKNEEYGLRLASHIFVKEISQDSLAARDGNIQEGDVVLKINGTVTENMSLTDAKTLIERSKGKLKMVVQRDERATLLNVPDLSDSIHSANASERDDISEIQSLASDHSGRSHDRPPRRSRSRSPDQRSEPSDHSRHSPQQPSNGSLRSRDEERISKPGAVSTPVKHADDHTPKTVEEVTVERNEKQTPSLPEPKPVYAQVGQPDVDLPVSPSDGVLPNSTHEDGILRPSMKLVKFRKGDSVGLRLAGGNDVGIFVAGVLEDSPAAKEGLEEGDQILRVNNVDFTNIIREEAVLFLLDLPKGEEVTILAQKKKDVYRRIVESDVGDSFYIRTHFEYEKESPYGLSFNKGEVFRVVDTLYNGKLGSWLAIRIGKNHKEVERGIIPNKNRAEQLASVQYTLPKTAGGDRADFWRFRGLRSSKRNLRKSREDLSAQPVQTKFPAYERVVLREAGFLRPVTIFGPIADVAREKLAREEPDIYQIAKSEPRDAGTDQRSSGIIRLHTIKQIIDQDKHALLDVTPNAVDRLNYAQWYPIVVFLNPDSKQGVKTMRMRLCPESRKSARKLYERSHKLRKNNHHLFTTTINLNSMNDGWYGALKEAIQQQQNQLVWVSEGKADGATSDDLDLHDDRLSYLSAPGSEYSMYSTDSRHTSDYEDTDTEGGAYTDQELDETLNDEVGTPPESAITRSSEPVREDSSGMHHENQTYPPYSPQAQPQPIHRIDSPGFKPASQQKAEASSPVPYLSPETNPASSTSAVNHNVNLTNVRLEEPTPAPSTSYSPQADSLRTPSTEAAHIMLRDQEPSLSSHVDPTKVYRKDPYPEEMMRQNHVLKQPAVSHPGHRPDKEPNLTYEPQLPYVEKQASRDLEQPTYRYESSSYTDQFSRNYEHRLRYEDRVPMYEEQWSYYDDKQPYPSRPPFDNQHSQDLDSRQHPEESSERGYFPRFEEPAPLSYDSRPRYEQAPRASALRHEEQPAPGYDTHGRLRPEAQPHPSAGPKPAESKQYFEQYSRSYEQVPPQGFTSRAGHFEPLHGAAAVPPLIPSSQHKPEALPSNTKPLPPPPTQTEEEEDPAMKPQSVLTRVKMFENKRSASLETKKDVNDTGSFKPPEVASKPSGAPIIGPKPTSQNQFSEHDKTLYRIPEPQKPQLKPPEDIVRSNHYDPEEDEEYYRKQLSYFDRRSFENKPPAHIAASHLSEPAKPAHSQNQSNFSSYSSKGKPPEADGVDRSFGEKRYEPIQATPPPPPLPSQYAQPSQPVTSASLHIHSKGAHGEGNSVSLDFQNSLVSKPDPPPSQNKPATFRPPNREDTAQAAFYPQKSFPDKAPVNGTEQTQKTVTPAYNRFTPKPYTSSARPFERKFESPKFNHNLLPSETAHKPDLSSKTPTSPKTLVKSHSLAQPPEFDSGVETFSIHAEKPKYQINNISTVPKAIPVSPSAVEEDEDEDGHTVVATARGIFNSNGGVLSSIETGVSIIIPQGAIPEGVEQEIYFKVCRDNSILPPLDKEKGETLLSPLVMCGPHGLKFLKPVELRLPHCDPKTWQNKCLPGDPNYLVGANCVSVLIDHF

zonula occludens-1 (ZO-1) (from UniProt Q07157 1-1748)
binding: binds

Reference: article PMC11989440
